Laboratory results: PubChem BioAssay AID1259354 (Paczesny and Yang Labs, IUPUI and University of Michigan, 2018)
“And” between values parts separate entries of the source, which are not always exact repeats. Identical values can stand only once. Among all 78,000 compounds or so, about 1,800 (2.3%) were called active. The inconclusive results got no clear call from the source; some entries with a clear call stand among them for comparison. No stated cut-off is given here; in the data, active means inhibition above about 30%; inconclusive means mostly about 10% to 28%; inactive means weaker than that.

Amino acid sequences for entries named in this document (tags omitted). A change or cut given only in a name is not applied to a line headed by its entry.
UniProt Q01638: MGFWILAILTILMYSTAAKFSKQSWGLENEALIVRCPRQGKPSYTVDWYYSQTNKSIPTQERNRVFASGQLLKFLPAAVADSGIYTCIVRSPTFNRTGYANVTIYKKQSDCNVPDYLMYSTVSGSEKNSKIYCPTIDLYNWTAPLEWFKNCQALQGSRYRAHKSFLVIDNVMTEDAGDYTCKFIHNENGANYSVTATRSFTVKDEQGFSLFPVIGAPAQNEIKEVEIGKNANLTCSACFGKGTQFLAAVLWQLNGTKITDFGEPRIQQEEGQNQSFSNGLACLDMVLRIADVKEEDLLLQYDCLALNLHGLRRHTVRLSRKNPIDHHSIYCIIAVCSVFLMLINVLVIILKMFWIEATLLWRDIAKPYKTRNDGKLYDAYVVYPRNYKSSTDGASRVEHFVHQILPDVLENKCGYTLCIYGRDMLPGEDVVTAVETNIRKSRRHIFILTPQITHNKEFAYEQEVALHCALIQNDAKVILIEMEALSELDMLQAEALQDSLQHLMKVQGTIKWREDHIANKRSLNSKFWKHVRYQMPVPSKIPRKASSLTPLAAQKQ

Molecular target: Interleukin-1 receptor-like 1 (Homo sapiens) (UniProt Q01638)
Assay: blocks human ST2 binding to IL-33, primary screen, biochemical, AlphaLISA (AID 1259354)
Details: AlphaLISA ST2-Fc/biotin-IL-33 interaction, 1 h; at 17 µM, hits give high values

| Structure (SMILES) | inhibition |
| --- | --- |
| Cc1cc(O)c2c(c1)C(=O)c1cc(O)cc(O[C@@H]3O[C@H](CO)[C@@H](O)[C@H](O)[C@H]3O)c1C2=O | inconclusive: 10% |
| Cc1cc(C)nc(Sc2ncnc3sc4c(c23)CCCC4)n1 | inactive |
| CCCCn1c(COc2ccccc2)nc2ccccc21 | inconclusive: 10% |
| Cn1cncc1-c1nnc([C@H]2CCN(Cc3ccc(Cl)cc3)C2)o1 | inconclusive: 11% |
| Cc1nc(C(C)C)nc(C)c1OCc1nc(-c2ccco2)oc1C | inconclusive: 21% |
| CN(C)c1ncnc2c1CCN(C(=O)C(O)c1ccc(C(F)(F)F)cc1)C2 (centres undefined) | inconclusive: 10% |
| O=C(Nc1nnc(-c2ccc(F)cc2)o1)c1ccc(S(=O)(=O)N2CCCCC2)cc1 | inactive |
| O=C(O)c1ccc(C2CCN(C(=O)Cc3cccnc3)C2)cc1 (centres undefined) | inconclusive: 25% |
| c1ccc(CN2CCC(Cn3ccnc3C3CC3)C2)cc1 (centres undefined) | inconclusive: 12% |
| Cc1[nH]c2ccc(CNC(=O)c3cnn4cc(CCO)cnc34)cc2c1C | inconclusive: 21% |
| COc1cc(O)c2c(=O)c(OC)c(-c3cc(O)c(OC)c(OC)c3)oc2c1 | active: 94% |
| Cc1ccn2cc(C(=O)N(C)CC3CCN(CCc4ccc(Cl)cc4)CC3)nc2c1 | inactive |
| CCC(=O)N1CCc2cc(Br)cc(S(=O)(=O)Nc3c(C)cc(C)cc3C)c21 | inactive |
| Cc1cc2ccccc2c(=O)n1CC(=O)NCC(=O)Nc1nc2ccccc2s1 | inactive |
| CC1CCN(C(=O)/C=C/c2ccc3c(c2)OCO3)CC1 | inconclusive: 14% |
| COc1cc2c(cc1OC)C(c1ccc(Cl)cc1)OC1=C2C(=O)c2ccccc21 (centres undefined) | active: 47% |
| C\C=C/C=C/C(O)=C1/C(=O)[C@]2(C)C(=O)[C@@](C)(O)[C@H]1[C@H]([C@]1(C)OC(=O)C(C)=C1O)[C@H]2C(=O)/C=C/C=C/C | inconclusive: 21% |
| CCN1CCCC1CNC(=O)CSCc1nc(-c2ccc(SC)cc2)oc1C (centres undefined) | inconclusive: 20% |
| Oc1cccc(N=Cc2nc(-c3ccc(Cl)cc3)oc2O)c1 | inconclusive: 14% |
| O=C(c1cnn2cccnc12)N1CCOc2ccc(C(O)C(c3ccccc3)c3ccccc3)cc2C1 (centres undefined) | inconclusive: 12% |
| CC(C)c1ccc(C2SCC(=O)N2CCN2CCCCC2)cc1 (centres undefined) | inactive |
| CCC(=O)N1c2ccccc2-c2nnc(SC)nc2OC1c1ccccc1 (centres undefined) | inconclusive: 15% |
| Cc1ncsc1CCN(C)Cc1cnc(N)nc1 | inconclusive: 11% |
| Cc1cc(NC(=O)CNC(C)(C)C)c2ccccc2n1 | inconclusive: 14% |

| Structure (SMILES) | inhibition |
| --- | --- |
| CN(C)c1ncccc1CNC(=O)c1cccc2c1NCCC2 | inconclusive: 14% |
| O=C(c1ccccc1)N(Cc1ccccc1)c1ccccn1 | inconclusive: 12% |
| O=C(CSc1nc2c(c(=O)n1-c1ccccc1)SCC2)Nc1ccc([N+](=O)[O-])cc1 | inconclusive: 25% |
| O=C(NCc1ccccn1)C12CC3CC(CC(C3)C1)C2 | inconclusive: 16% |
| CC(C)NC(=O)C(=O)N1CCn2nc(C(=O)N3CCN(C)CC3)cc2C1 | inactive |
| c1ccc(COC2CCCN(Cc3cc4ccccc4o3)C2)nc1 (centres undefined) | inconclusive: 13% |
| CC(C)Cc1ccc(S(=O)(=O)NC2CCCCC2)cc1 | inactive |
| COc1ccc(-n2ncc3c(N4CCN(c5ccccc5)CC4)ncnc32)cc1 | inconclusive: 23% |
| COc1ccc(-c2csc(=Nc3ccccc3)n2CCCN(C)C)cc1 | active: 51% and active: 44% |
| CCOc1ccc(OCC)c(NS(=O)(=O)c2ccc3c(c2)CCC(=O)N3)c1 | inactive |
| c1ccc(CCc2noc(COc3ccc(-n4cnnc4)cc3)n2)cc1 | inconclusive: 20% |
| CCc1cnc(C)nc1N1CCC(O)(Cc2ccccc2)CC1 | inconclusive: 19% |
| CN(C(=O)Cc1c(C(=O)O)[nH]c2ccccc12)c1ccccc1 | inactive |
| CCOC(=O)N1CCC(NCCSc2ncn[nH]2)CC1 | inactive |
| Cc1ccc(S(=O)(=O)Cc2noc([C@@H]3C[C@@H](O)CN3Cc3ccccc3[N+](=O)[O-])n2)cc1 | active: 31% |
| COc1ccc(N2CCN(C(=O)Cc3cn(C)c4ccccc34)CC2)cc1 | inactive |
| CC1=C(C(=O)OCCC#N)C(c2ccc(Cl)c(Cl)c2)NC(=O)N1 (centres undefined) | inconclusive: 11% |
| Cc1ccccc1NC(=O)c1cccc(N=Cc2ccc(O)c(O)c2)c1 | inactive |
| CC(C)(C(=O)N1CC[C@H]2CC[C@@H](C1)N2)c1ccccc1 | inactive |
| Cc1ccc(C2(O)CCN(C(=O)COCc3ccccc3)CC2)nc1 | inconclusive: 12% |
| CNc1nc(C(=O)N[C@@H]2CC[C@@H](N)C2)cs1 | inconclusive: 14% |
| COc1ccc(OC)c(NC(=O)CN(c2ccc([N+](=O)[O-])cc2)S(=O)(=O)c2ccccc2)c1 | inconclusive: 25% |
| O=C(c1cc2ncccn2n1)N1CC[C@@H](c2ccc3c(c2)OCO3)[C@H](O)C1 | inactive |
| N#Cc1c(N)nc(SCC(=O)c2ccc(Br)cc2)c(C#N)c1-c1cccs1 | inconclusive: 10% |

| Structure (SMILES) | inhibition |
| --- | --- |
| CS(=O)(=O)N(Cc1ccccc1)c1ccccn1 | inconclusive: 18% |
| Cc1ccc(-n2nc3c(c2NC(=O)c2cc(Br)ccc2Cl)CS(=O)C3)cc1 (centres undefined) | inactive |
| COc1ccc(S(=O)(=O)N=C2C(C)=CC(=O)C(S(=O)(=O)c3ccccc3)=C2C)cc1 | inconclusive: 20% |
| COc1ccc2[nH]cc(C=O)c2c1 | inconclusive: 16% |
| O=C(Nc1cc2ccccc2oc1=O)c1ccc(Cl)cc1 | inconclusive: 18% |
| c1ccc(CCN2CCN(Cc3ccccc3)CC2)cc1 | inconclusive: 18% |
| Cc1nc(CNC(=O)c2ccc(OC3CCN(S(C)(=O)=O)CC3)c(Cl)c2)cs1 | inconclusive: 12% |
| Cc1cccc(N(CC(=O)Nc2ccccc2Cl)S(=O)(=O)c2ccccc2)c1C | inactive |
| Cc1ccccc1-c1ncc(CN2CCCC(Nc3ccccc3)C2)cn1 (centres undefined) | inconclusive: 14% |
| COCCC(=O)N[C@H]1CC[C@]2(C)CCC([C@H](C)C(=O)NCCc3ccc(OC)c(OC)c3)[C@H](O)[C@H]2[C@@H]1C (some centres undefined) | inconclusive: 11% |
| COc1ccccc1CN[C@H]1CC(C)(C)[C@@H]2C[C@@](C)(O)CC[C@]12CCC(=O)N1CCOCC1 | inconclusive: 14% |
| Cc1cc(C)c(NC(=O)COc2ccccc2[N+](=O)[O-])c(C)c1 | inactive |
| O=C(c1sccc1Cl)N1Cc2cnn(Cc3ccc(F)cc3)c2C1 | inconclusive: 10% |
| CCc1c(C)nn(CC(=O)N2CCCC(Nc3ccccc3)C2)c1C (centres undefined) | inactive |
| CN(CCCc1nccn1C)C1CCC2(CCNCC2)CC1 | inconclusive: 13% |
| c1ccc(OCc2noc(CN3CCCC(c4ccccc4)CC3)n2)cc1 (centres undefined) | inconclusive: 22% |
| O=C(CC[C@@H]1CNC(=O)[C@@H]2C[C@H](NC(=O)Nc3ccc(F)cc3F)CN12)NCc1ccc(F)cc1 | active: 71% |
| Cc1cc(C)c2c(c1)NC(=O)C2CC(=O)N1CCc2nc[nH]c2C1 (centres undefined) | inconclusive: 11% |
| CCCN1CCC(Cc2noc([C@@H](N)Cc3ccccc3)n2)CC1 | inconclusive: 10% |
| COc1ccc2nc(NS(=O)(=O)c3ccc(C)cc3)sc2c1 | inactive |
| O=C(Nc1ccc2c(c1)OCO2)c1sc2ccccc2c1Cl | inconclusive: 26% |
| Oc1cccc(N=Cc2nc(-c3ccc(Br)cc3)oc2O)c1 | inactive |
| Cc1cc(Nc2ccccc2)nc(N2CCN(S(=O)(=O)c3ccc4c(c3)Cc3ccccc3-4)CC2)n1 | inconclusive: 12% |
| O=C(Cc1ccc(Cl)cc1)Nc1ccc(-c2nc3ccccc3o2)cc1 | inconclusive: 27% |

| Structure (SMILES) | inhibition |
| --- | --- |
| COc1ccc(N(C(=O)c2cccs2)C2C=CS(=O)(=O)C2)cc1 (centres undefined) | inactive |
| CCC(=O)Nc1cc2nn(-c3ccc(OC)c(Cl)c3)nc2cc1C | inactive |
| CCc1ccc(-c2nc(CN3CCC(C(=O)NCCN(C)C)CC3)c(C)o2)cc1 | inconclusive: 11% |
| Cc1cccn2c(=O)c3cc(C(=O)NCCCn4ccnc4)n(C)c3nc12 | inconclusive: 11% |
| c1coc(CNCC2OCc3ccccc3CO2)c1 | inactive |
| CCn1nc(CNC(=O)CCc2scnc2C)c2ccccc21 | inactive |
| Cc1ccc(/C=C/NC(=O)c2ccco2)cc1C | active: 31% |
| Cc1n[nH]c(C)c1S(=O)(=O)N1CCC(C(=O)Nc2ccc(F)c(F)c2)CC1 | inconclusive: 23% |
| Cc1nc(SCc2ccccc2F)c2c(=O)n(C)c(=O)n(C)c2n1 | inconclusive: 11% |
| CCc1ncc(C(=O)NC(C)Cc2cc(C)[nH]n2)cn1 (centres undefined) | inconclusive: 11% |
| CCOc1ccc(C2C(C#N)=C(SC)NC(=O)C2C(=O)OC)cc1 (centres undefined) | inconclusive: 11% |
| Cc1ccc(NC(=O)c2cc3c(=O)n4cccc(C)c4nc3n2C)cc1 | inconclusive: 13% |
| COc1ccc(OC)c(NC(=O)c2ccc(Cl)cc2)c1 | inconclusive: 13% |
| CCCCN(CCCC)S(=O)(=O)c1ccc2oc(C(=O)O)c(C)c2c1 | inactive |
| COc1cc(F)c(CN2CCCC2c2ccc(F)cc2)cc1OC (centres undefined) | inconclusive: 16% |
| O=C(CSc1nc2c([nH]c3ccccc32)c(=O)n1-c1cccc(Cl)c1)N1CCCC1 | inconclusive: 23% |
| COc1ccc(C2=NN(C(=O)CCC(=O)O)C(c3cccc(OC)c3OC)C2)cc1OC (centres undefined) | inactive |
| CC1CCc2c(sc(NC(=O)c3ccccc3Cl)c2C(=O)NCc2ccco2)C1 (centres undefined) | inactive |
| CC(=O)Nc1ccc2cccccc1-2 | active: 56% |
| COc1cc(C(=O)N2CCN=C2SCc2cccc(Cl)c2)cc(OC)c1OC | inactive |
| COc1ccc(N2C(=O)CC(NCc3cccnc3)C2=O)cc1 (centres undefined) | inconclusive: 10% |
| Cc1nc(C(=O)N2CCCC2c2ccccc2C)cs1 (centres undefined) | inconclusive: 17% |
